Laboratory results from patent US20180087086A1, “CELL EGRESS AND INVASION INHIBITORS AND THEIR USE AS ANTIPARASITICAL AGENTS” (THE JOHNS HOPKINS UNIVERSITY, priority 2015, published 2018).
Some entries share one result that the patent states for a list of compounds.

Tested on: P. berghei sporozoites
Experiment: in vitro sporozoite gliding assay (CSP trails on anti-CSP coated slides)
Format: cell-based
Settings: 250 μM; DMSO control more than 90% deposited trails
Description: Compounds selected from the initial hit list were tested using in vitro gliding assays. Five compounds were selected for dose dependent testing on gliding motility based on early crystallographic experiments and first round gliding assay experiments at high concentration.
P. berghei sporozoites were purified from mosquitoes, incubated with compound, and allowed to glide on anti-CSP coated slides. The CSP-trails deposited by the gliding parasites were detected with anti-CSP antibodies. Trails were quantified for each sporozoite. The ability of each sporozoite to glide was categorized as no gliding (0 trails), and low (<10 trails), medium (10-20 trails), and high gliding (>20 trails).
In the DMSO control, more than 90% of sporozoites deposited trails, with >60% classified as medium and high gliding (>10 trails). […] At lower concentrations of compounds, the sporozoites did start to recover their gliding ability. However, for compound 4 at the lowest concentration of compound, less than 60% of the sporozoites were gliding and when they did glide, 90% of those sporozoites were depositing less than 10 trails and upon inspection of multiple fields, they typically could only complete one circular trail. […]

Brc1ccc(Nc2nc3ccccc3nc2Nc2ccc(Br)cc2)cc1 [Compound 4, N,N′-bis(4-bromophenyl)-2,3-quinoxalinediamine]
total parasite gliding: less than 10%
